# Measured values: the supplement of paper PMC8728848
# Some of the results follow.
# B1: CD23 (Homo sapiens) (protein)
# chain: MELQVSSGFVCNTCPEKWINFQRKCYYFGKGTKQWVHARYACDDMEGQLVSIHSPEEQDFLTKHASHTGSWIGLRNLDLKGEFIWVDGSHVDYSNWAPGEPTSRSQGEDCVMMRGSGRWNDAFCDRKLGAWVCDRLATCTPPASEGSAESMGPDSRPDPDGRLPTPSAPLHS
# Tests used:
# Test in all cases: glycan array binding signal (z-score within array); higher = stronger binding
# Conditions in all cases: glycan notation: IUPAC condensed, linker removed
# [1] = biological target: Man(a1-3)[Man(a1-6)]Man(b1-4)GlcNAc(b1-4)GlcNAc
# Summary of the method: (§1)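 The binding signal is a Z-score computed within each array and averaged over linkers. Arrays of the same protein sequence at different concentrations or buffers were also averaged together. Data originate from 3228 arrays in the Consortium for Functional Glycomics database, kept only where the protein sequence was available.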
# Man(b1-4)GlcNAc = biological target: Man(b1-4)GlcNAc
# Summary of the method: as §1
# Neu5Ac(a2-3)Gal = biological target: Neu5Ac(a2-3)Gal
# Summary of the method: as §1
# [2] = biological target: Neu5Ac(a2-3)Gal(b1-3)GalNAc
# Summary of the method: as §1
# [3] = biological target: Neu5Ac(a2-3)Gal(b1-3)GalNAc(b1-3)Gal(a1-4)Gal(b1-4)Glc
# Summary of the method: as §1
# [4] = biological target: Neu5Ac(a2-3)Gal(b1-3)GalNAc(b1-3)Gal(b1-4)GlcNAc
# Summary of the method: as §1
# [5] = biological target: Neu5Ac(a2-3)Gal(b1-3)GalNAc(b1-4)[Neu5Ac(a2-3)]Gal(b1-4)Glc
# Summary of the method: as §1
# [6] = biological target: Neu5Ac(a2-3)Gal(b1-3)GalNAc6S
# Summary of the method: as §1
# [7] = biological target: Neu5Ac(a2-3)Gal(b1-3)GlcNAc
# Summary of the method: as §1
# [8] = biological target: Neu5Ac(a2-3)Gal(b1-3)GlcNAc(b1-3)Gal(b1-3)GlcNAc
# Summary of the method: as §1
# [9] = biological target: Neu5Ac(a2-3)Gal(b1-3)GlcNAc6S
# Summary of the method: as §1
# [10] = biological target: Neu5Ac(a2-3)Gal(b1-3)[Fuc(a1-4)]GlcNAc
# Summary of the method: as §1
# [11] = biological target: Neu5Ac(a2-3)Gal(b1-3)[Fuc(a1-4)]GlcNAc(b1-3)Gal(b1-4)[Fuc(a1-3)]GlcNAc
# Summary of the method: as §1
# [12] = biological target: Neu5Ac(a2-3)Gal(b1-3)[Neu5Ac(a2-3)Gal(b1-4)]GlcNAc
# Summary of the method: as §1
# [13] = biological target: Neu5Ac(a2-3)Gal(b1-3)[Neu5Ac(a2-6)]GalNAc
# Summary of the method: as §1
# Neu5Ac(a2-3)Gal(b1-4)Glc = biological target: Neu5Ac(a2-3)Gal(b1-4)Glc
# Summary of the method: as §1
# [14] = biological target: Neu5Ac(a2-3)Gal(b1-4)GlcNAc
# Summary of the method: as §1
# [15] = biological target: Neu5Ac(a2-3)Gal(b1-4)GlcNAc(b1-3)Gal(b1-3)GlcNAc
# Summary of the method: as §1
# [16] = biological target: Neu5Ac(a2-3)Gal(b1-4)GlcNAc(b1-3)Gal(b1-4)GlcNAc
# Summary of the method: as §1
# [17] = biological target: Neu5Ac(a2-3)Gal(b1-4)GlcNAc(b1-3)Gal(b1-4)GlcNAc(b1-3)Gal(b1-4)GlcNAc
# Summary of the method: as §1
# [18] = biological target: Neu5Ac(a2-3)Gal(b1-4)GlcNAc(b1-3)Gal(b1-4)[Fuc(a1-3)]GlcNAc
# Summary of the method: as §1
# [19] = biological target: Neu5Ac(a2-3)Gal(b1-4)GlcNAc(b1-6)[Gal(b1-3)]GalNAc
# Summary of the method: as §1
# [20] = biological target: Neu5Ac(a2-3)Gal(b1-4)GlcNAc6S
# Summary of the method: as §1
# [21] = biological target: Neu5Ac(a2-3)Gal(b1-4)[Fuc(a1-3)]GlcNAc
# Summary of the method: as §1
# [22] = biological target: Neu5Ac(a2-3)Gal(b1-4)[Fuc(a1-3)]GlcNAc(b1-3)Gal
# Summary of the method: as §1
# [23] = biological target: Neu5Ac(a2-3)Gal(b1-4)[Fuc(a1-3)]GlcNAc(b1-3)Gal(b1-4)GlcNAc
# Summary of the method: as §1
# [24] = biological target: Neu5Ac(a2-3)Gal(b1-4)[Fuc(a1-3)]GlcNAc(b1-3)Gal(b1-4)[Fuc(a1-3)]GlcNAc(b1-3)Gal(b1-4)[Fuc(a1-3)]GlcNAc
# Summary of the method: as §1
# [25] = biological target: Neu5Ac(a2-3)Gal(b1-4)[Fuc(a1-3)]GlcNAc6S
# Summary of the method: as §1
# [26] = biological target: Neu5Ac(a2-3)Gal6S(b1-4)GlcNAc
# Summary of the method: as §1
# [27] = biological target: Neu5Ac(a2-3)Gal6S(b1-4)[Fuc(a1-3)]GlcNAc
# Summary of the method: as §1
# Neu5Ac(a2-3)GalNAc = biological target: Neu5Ac(a2-3)GalNAc
# Summary of the method: as §1
# [28] = biological target: Neu5Ac(a2-3)GalNAc(b1-4)GlcNAc
# Summary of the method: as §1
# [29] = biological target: Neu5Ac(a2-3)[GalNAc(b1-4)]Gal(b1-4)Glc
# Summary of the method: as §1
# [30] = biological target: Neu5Ac(a2-3)[GalNAc(b1-4)]Gal(b1-4)GlcNAc
# Summary of the method: as §1
# [31] = biological target: Neu5Ac(a2-3)[Neu5Ac(a2-6)]GalNAc
# Summary of the method: as §1
# Neu5Ac(a2-6)Gal = biological target: Neu5Ac(a2-6)Gal
# Summary of the method: as §1
# Neu5Ac(a2-6)Gal(b1-4)Glc = biological target: Neu5Ac(a2-6)Gal(b1-4)Glc
# Summary of the method: as §1
# [32] = biological target: Neu5Ac(a2-6)Gal(b1-4)GlcNAc
# Summary of the method: as §1
# [33] = biological target: Neu5Ac(a2-6)Gal(b1-4)GlcNAc(b1-2)Man(a1-3)[Neu5Ac(a2-6)Gal(b1-4)GlcNAc(b1-2)Man(a1-6)]Man(b1-4)GlcNAc(b1-4)GlcNAc
# Summary of the method: as §1
# [34] = biological target: Neu5Ac(a2-6)Gal(b1-4)GlcNAc(b1-3)Gal(b1-4)GlcNAc
# Summary of the method: as §1
# [35] = biological target: Neu5Ac(a2-6)Gal(b1-4)GlcNAc(b1-3)Gal(b1-4)[Fuc(a1-3)]GlcNAc(b1-3)Gal(b1-4)[Fuc(a1-3)]GlcNAc
# Summary of the method: as §1
# [36] = biological target: Neu5Ac(a2-6)Gal(b1-4)GlcNAc6S
# Summary of the method: as §1
# Neu5Ac(a2-6)GalNAc = biological target: Neu5Ac(a2-6)GalNAc
# Summary of the method: as §1
# [37] = biological target: Neu5Ac(a2-6)GalNAc(b1-4)GlcNAc
# Summary of the method: as §1
# Neu5Ac(a2-8)Neu5Ac = biological target: Neu5Ac(a2-8)Neu5Ac
# Summary of the method: as §1
# [38] = biological target: Neu5Ac(a2-8)Neu5Ac(a2-3)Gal(b1-4)Glc
# Summary of the method: as §1
# [39] = biological target: Neu5Ac(a2-8)Neu5Ac(a2-3)[GalNAc(b1-4)]Gal(b1-4)Glc
# Summary of the method: as §1
# [40] = biological target: Neu5Ac(a2-8)Neu5Ac(a2-8)Neu5Ac
# Summary of the method: as §1
# [41] = biological target: Neu5Ac(a2-8)Neu5Ac(a2-8)Neu5Ac(a2-3)Gal(b1-4)Glc
# Summary of the method: as §1
# [42] = biological target: Neu5Ac(a2-8)Neu5Ac(a2-8)Neu5Ac(a2-3)[GalNAc(b1-4)]Gal(b1-4)Glc
# Summary of the method: as §1
# [43] = biological target: Neu5Ac(a2-8)Neu5Ac(a2-8)Neu5Ac(a2-8)Neu5Ac(a2-3)[GalNAc(b1-4)]Gal(b1-4)Glc
# Summary of the method: as §1
# [44] = biological target: Neu5Ac(b2-6)Gal(b1-4)GlcNAc
# Summary of the method: as §1
# Neu5Ac(b2-6)GalNAc = biological target: Neu5Ac(b2-6)GalNAc
# Summary of the method: as §1
# [45] = biological target: Neu5Ac9Ac(a2-6)Gal(b1-4)GlcNAc
# Summary of the method: as §1
# [46] = biological target: Neu5Gc(a2-3)Gal(b1-3)GlcNAc
# Summary of the method: as §1
# [47] = biological target: Neu5Gc(a2-3)Gal(b1-3)[Fuc(a1-4)]GlcNAc
# Summary of the method: as §1
# Neu5Gc(a2-3)Gal(b1-4)Glc = biological target: Neu5Gc(a2-3)Gal(b1-4)Glc
# Summary of the method: as §1
# [48] = biological target: Neu5Gc(a2-3)Gal(b1-4)GlcNAc
# Summary of the method: as §1
# [49] = biological target: Neu5Gc(a2-3)Gal(b1-4)[Fuc(a1-3)]GlcNAc
# Summary of the method: as §1
# [50] = biological target: Neu5Gc(a2-6)Gal(b1-4)GlcNAc
# Summary of the method: as §1
# Neu5Gc(a2-6)GalNAc = biological target: Neu5Gc(a2-6)GalNAc
# Summary of the method: as §1
binder,measurement,setting,value
B1,glycan array binding signal (z-score),[1],-0.352
same,glycan array binding signal (z-score),Man(b1-4)GlcNAc,-0.469
same,glycan array binding signal (z-score),Neu5Ac(a2-3)Gal,-0.385
same,glycan array binding signal (z-score),[2],-0.417
same,glycan array binding signal (z-score),[3],-0.271
same,glycan array binding signal (z-score),[4],-0.388
same,glycan array binding signal (z-score),[5],-0.58
same,glycan array binding signal (z-score),[6],-0.3
same,glycan array binding signal (z-score),[7],-0.073
same,glycan array binding signal (z-score),[8],-0.189
same,glycan array binding signal (z-score),[9],-0.588
same,glycan array binding signal (z-score),[10],-0.278
same,glycan array binding signal (z-score),[11],0.596
same,glycan array binding signal (z-score),[12],0.023
same,glycan array binding signal (z-score),[13],-0.537
same,glycan array binding signal (z-score),Neu5Ac(a2-3)Gal(b1-4)Glc,-0.51
same,glycan array binding signal (z-score),[14],-0.071
same,glycan array binding signal (z-score),[15],-0.539
same,glycan array binding signal (z-score),[16],-0.528
same,glycan array binding signal (z-score),[17],-0.961
same,glycan array binding signal (z-score),[18],-0.233
same,glycan array binding signal (z-score),[19],0.066
same,glycan array binding signal (z-score),[20],-0.517
same,glycan array binding signal (z-score),[21],0.034
same,glycan array binding signal (z-score),[22],-0.435
same,glycan array binding signal (z-score),[23],1.15
same,glycan array binding signal (z-score),[24],0.207
same,glycan array binding signal (z-score),[25],-0.09
same,glycan array binding signal (z-score),[26],-0.571
same,glycan array binding signal (z-score),[27],0.332
same,glycan array binding signal (z-score),Neu5Ac(a2-3)GalNAc,0.07
same,glycan array binding signal (z-score),[28],0.011
same,glycan array binding signal (z-score),[29],-0.423
same,glycan array binding signal (z-score),[30],-0.147
same,glycan array binding signal (z-score),[31],-0.115
same,glycan array binding signal (z-score),Neu5Ac(a2-6)Gal,0.034
same,glycan array binding signal (z-score),Neu5Ac(a2-6)Gal(b1-4)Glc,-0.226
same,glycan array binding signal (z-score),[32],-0.334
same,glycan array binding signal (z-score),[33],0.151
same,glycan array binding signal (z-score),[34],0.383
same,glycan array binding signal (z-score),[35],0.322
same,glycan array binding signal (z-score),[36],-0.039
same,glycan array binding signal (z-score),Neu5Ac(a2-6)GalNAc,-0.532
same,glycan array binding signal (z-score),[37],-0.391
same,glycan array binding signal (z-score),Neu5Ac(a2-8)Neu5Ac,-0.328
same,glycan array binding signal (z-score),[38],-0.319
same,glycan array binding signal (z-score),[39],-0.138
same,glycan array binding signal (z-score),[40],0.201
same,glycan array binding signal (z-score),[41],-0.028
same,glycan array binding signal (z-score),[42],-0.367
same,glycan array binding signal (z-score),[43],-0.043
same,glycan array binding signal (z-score),[44],-0.091
same,glycan array binding signal (z-score),Neu5Ac(b2-6)GalNAc,-0.582
same,glycan array binding signal (z-score),[45],1.43
same,glycan array binding signal (z-score),[46],0.389
same,glycan array binding signal (z-score),[47],0.077
same,glycan array binding signal (z-score),Neu5Gc(a2-3)Gal(b1-4)Glc,-0.171
same,glycan array binding signal (z-score),[48],-0.054
same,glycan array binding signal (z-score),[49],0.007
same,glycan array binding signal (z-score),[50],-0.645
same,glycan array binding signal (z-score),Neu5Gc(a2-6)GalNAc,-0.117

# Two entries drawn at random from the list so far, as already listed:
binder,measurement,setting,value
B1,glycan array binding signal (z-score),[30],-0.147
same,glycan array binding signal (z-score),[24],0.207
